Here are results for two substances from PMC5356556.

By UniProt entry, the sequences of proteins in these tests, tags left out. Where a name states a change or a piece, a line headed by the entry shows the natural chain unless it says otherwise. Residues count along the entry.
UniProt P04233: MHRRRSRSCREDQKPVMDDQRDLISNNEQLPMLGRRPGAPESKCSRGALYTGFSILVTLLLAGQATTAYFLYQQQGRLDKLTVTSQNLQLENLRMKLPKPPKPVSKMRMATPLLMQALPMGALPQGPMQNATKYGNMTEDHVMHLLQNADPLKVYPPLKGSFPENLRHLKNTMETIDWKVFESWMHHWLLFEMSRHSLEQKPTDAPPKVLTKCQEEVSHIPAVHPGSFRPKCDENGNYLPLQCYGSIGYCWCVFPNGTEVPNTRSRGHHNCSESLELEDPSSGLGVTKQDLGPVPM
UniProt P16070, residues 21-742: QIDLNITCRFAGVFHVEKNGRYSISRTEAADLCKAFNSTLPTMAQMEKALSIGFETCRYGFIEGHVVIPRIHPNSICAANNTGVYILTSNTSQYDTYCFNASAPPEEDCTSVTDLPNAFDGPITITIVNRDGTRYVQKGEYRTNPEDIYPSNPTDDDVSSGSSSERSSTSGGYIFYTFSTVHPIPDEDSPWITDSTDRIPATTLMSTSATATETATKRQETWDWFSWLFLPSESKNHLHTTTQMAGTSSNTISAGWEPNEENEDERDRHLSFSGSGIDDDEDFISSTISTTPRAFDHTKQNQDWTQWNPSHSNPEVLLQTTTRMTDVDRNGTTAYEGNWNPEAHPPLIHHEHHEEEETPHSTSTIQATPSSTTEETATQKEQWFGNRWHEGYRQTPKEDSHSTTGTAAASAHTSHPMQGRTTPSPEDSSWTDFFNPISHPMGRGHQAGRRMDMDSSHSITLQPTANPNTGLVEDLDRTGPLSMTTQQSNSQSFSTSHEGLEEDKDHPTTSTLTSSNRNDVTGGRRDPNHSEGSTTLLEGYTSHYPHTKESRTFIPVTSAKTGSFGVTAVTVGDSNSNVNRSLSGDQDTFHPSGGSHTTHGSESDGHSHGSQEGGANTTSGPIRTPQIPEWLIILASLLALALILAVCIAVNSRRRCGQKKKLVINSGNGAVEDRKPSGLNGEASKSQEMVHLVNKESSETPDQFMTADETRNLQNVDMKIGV

These are yes or no findings as the source states them, for the method shown. Binding seen in cells or lysates may run through a third protein. Some entries that bind do so weakly or less than the wild type.

The target of assay [1] is Flag-CD74 (human) (UniProt P04233). Put plainly: co-IP; Flag-CD74 transfected into T47D cells; precipitated with anti-Flag antibody, endogenous CD44 detected.
Assay [2] shares this target. The assay is described as follows: co-IP; Flag-CD74 transfected into MDA-MB-231 cells; precipitated with anti-Flag antibody, endogenous CD44 detected.
Assay [3] deals with CD44 (human (endogenous in MDA-MB-231 and T47D)) (UniProt P16070). The assay is described as follows: co-IP; lysates of MDA-MB-231 cells, endogenous proteins; precipitated with anti-CD44 antibody, CD74 detected.

On to “CD44 (from UniProt P16070 21-742) (receptor)”, for which the binding result in the assay with Flag-CD74 (human) [1] and with Flag-CD74 (human) [2] was “binds” in each case.

For CD74 (from UniProt P04233 1-296), the binding entry in assay [3] was “binds”.
